Laboratory results: PubChem BioAssay AID1259291 (Sanger Institute, 2017)

Aim: 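Search for gene knock-downs that act synergistically alongside anchor drugs to kill cells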 (primary screen)
Cell system: HT29 human colorectal cancer cells
Reagents: siRNA pool against human genes
Treatment: anchor drugs added a day after transfection: BYL719 at 1 µM, cetuximab at 5 µg/ml or trametinib at 10 nM, or DMSO vehicle alone
Measurement: 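Replicate-averaged viability relative to non-targeting pool, robust z-score based on control wells, plus per-drug synergy score for 1 µM BYL719, 5 µg/ml cetuximab and 10 nM trametinib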
Direction: robust z-score, knock-down alone and viability, knock-down alone: higher = more viable cells
Units: viability, knock-down alone in fraction of control
Hit rule: 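a knock-down alone scoring under -3 on robust z-score is called essential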
Meaning of the calls: active = essential (knock-down alone); inactive = no change alone
In all, the deposit lists 794 reagents; this is a part drawn at random. Of all reagents, 15 (1.9%) got an active call. 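Calls rest on knock-down alone; drug synergy scores do not affect them; drugs added a day post-transfection, DMSO vehicle as comparison.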 Viability is capped at 1. Further read-outs or replicates are left out here. Not stated in the record: the amount of reagent, the time to read-out.

With JAK2 [SID56478524], how do the results read?
robust z-score, knock-down alone: -5.73; viability, knock-down alone: 0.611; call: active

For FES [SID56478510], what does the deposit list?
robust z-score, knock-down alone: -1.42; viability, knock-down alone: 0.878; call: inactive

For TP53BP1 [SID134309949], how do the results read?
robust z-score, knock-down alone: -0.943; viability, knock-down alone: 0.907; call: inactive

Which result is listed for PRPS2 [SID152153546]?
robust z-score, knock-down alone: 0.185; viability, knock-down alone: 0.977; call: inactive

What is on record for BRSK1 [SID135620852]?
robust z-score, knock-down alone: -0.296; viability, knock-down alone: 0.947; call: inactive

Which result is listed for ROR2 [SID56478550]?
robust z-score, knock-down alone: -1.62; viability, knock-down alone: 0.865; call: inactive

Which result is listed for SMC1A [SID134311995]?
robust z-score, knock-down alone: 0.552; viability, knock-down alone: 1; call: inactive

For CDK9 [SID152156235], what was measured?
robust z-score, knock-down alone: 0.552; viability, knock-down alone: 1; call: inactive

What did the screen give for KHK [SID135621242]?
robust z-score, knock-down alone: 0.552; viability, knock-down alone: 1; call: inactive

For CDK11A [SID152154784], what was measured?
robust z-score, knock-down alone: 0.552; viability, knock-down alone: 1; call: inactive

For GOLGA5 [SID134315128], what was measured?
robust z-score, knock-down alone: 0.356; viability, knock-down alone: 0.988; call: inactive

For ADGRL2 [SID152152166], how do the results read?
robust z-score, knock-down alone: -0.0259; viability, knock-down alone: 0.964; call: inactive

How did the screen score BMPR2 [SID135620969]?
robust z-score, knock-down alone: 0.219; viability, knock-down alone: 0.979; call: inactive

Which result is listed for CDKN2B [SID135620642]?
robust z-score, knock-down alone: -0.506; viability, knock-down alone: 0.934; call: inactive

How did the screen score MAP3K5 [SID56478697]?
robust z-score, knock-down alone: 0.552; viability, knock-down alone: 1; call: inactive

How did the screen score AK3 [SID56479080]?
robust z-score, knock-down alone: 0.552; viability, knock-down alone: 1; call: inactive

For LCK [SID152150546], what does the deposit list?
robust z-score, knock-down alone: 0.262; viability, knock-down alone: 0.982; call: inactive

Entries listed so far whose gene name begins with B or b:
BRSK1 [SID135620852] — robust z-score, knock-down alone = -0.296; viability, knock-down alone = 0.947; call = inactive
BMPR2 [SID135620969] — robust z-score, knock-down alone = 0.219; viability, knock-down alone = 0.979; call = inactive

The listing continues.
What is on record for MAST1 [SID135620865]?
robust z-score, knock-down alone: -0.489; viability, knock-down alone: 0.935; call: inactive

With CASP8 [SID135620682], what does the deposit list?
robust z-score, knock-down alone: 0.552; viability, knock-down alone: 1; call: inactive

What did the screen give for CLSPN [SID134310856]?
robust z-score, knock-down alone: 0.552; viability, knock-down alone: 1; call: inactive

With NEK4 [SID152155431], what was measured?
robust z-score, knock-down alone: 0.0705; viability, knock-down alone: 0.97; call: inactive

How did the screen score MAPK6 [SID56478707]?
robust z-score, knock-down alone: -0.602; viability, knock-down alone: 0.928; call: inactive

For PRKD3 [SID56478959], how do the results read?
robust z-score, knock-down alone: -2.6; viability, knock-down alone: 0.804; call: inactive

For ROR1 [SID135620631], how do the results read?
robust z-score, knock-down alone: 0.552; viability, knock-down alone: 1; call: inactive

How did the screen score AXIN2 [SID135621652]?
robust z-score, knock-down alone: -1.06; viability, knock-down alone: 0.9; call: inactive

Which result is listed for MARK1 [SID152146970]?
robust z-score, knock-down alone: 0.552; viability, knock-down alone: 1; call: inactive

What did the screen give for RSKR [SID56478814]?
robust z-score, knock-down alone: 0.156; viability, knock-down alone: 0.975; call: inactive

How did the screen score CAMK1G [SID56478930]?
robust z-score, knock-down alone: 0.552; viability, knock-down alone: 1; call: inactive

For PRKCSH [SID56479239], what was measured?
robust z-score, knock-down alone: 0.552; viability, knock-down alone: 1; call: inactive

For FGFRL1 [SID135622448], what does the deposit list?
robust z-score, knock-down alone: 0.552; viability, knock-down alone: 1; call: inactive

Which result is listed for KDR [SID56478526]?
robust z-score, knock-down alone: 0.552; viability, knock-down alone: 1; call: inactive

For MARK2 [SID152148068], how do the results read?
robust z-score, knock-down alone: -3.17; viability, knock-down alone: 0.769; call: active

With PFKM [SID56479129], what was measured?
robust z-score, knock-down alone: 0.552; viability, knock-down alone: 1; call: inactive

For AK1 [SID152147390], what does the deposit list?
robust z-score, knock-down alone: 0.552; viability, knock-down alone: 1; call: inactive

Which result is listed for NME7 [SID56479121]?
robust z-score, knock-down alone: 0.552; viability, knock-down alone: 1; call: inactive

What did the screen give for RPS6KB1 [SID152147142]?
robust z-score, knock-down alone: 0.552; viability, knock-down alone: 1; call: inactive
